# From article PMC5996148
# This is one part of the list.
# Experiments:
# Experiment in all cases: protein microarray (ProtoArray v5.0), streptavidin-Alexa Fluor 647
# Details in all cases: 3'-biotin; 20 mM Tris (pH 7.5), 5 mM MgCl2, 100 mM KCl, 0.1% Tween-20, A/T-rich and random oligonucleotide blockers; temperature not stated; high values mean tight binding
# [1] = test system: OSBPL1A (human)
# [2] = test system: OSTbeta (human)
# [3] = test system: OTUB1 (human)
# [4] = test system: OTUB2 (human)
# [5] = test system: Olfactory receptor 3A1 (human)
# [6] = test system: Optineurin (human)
# [7] = test system: Ornithine decarboxylase (human)
# [8] = test system: P2RX1 (human)
# [9] = test system: P2RXL1 (human)
# [10] = test system: PAFAH1B2 (human)
sequence,measurement,setting,value
GGGGACAGGGGTATGGGGAGGGG [G4-3 biotinylated (CtG)],binding signal,[1],-0.33 z-score
same,binding signal,[2],-0.329 z-score
same,binding signal,[3],-0.295 z-score
same,binding signal,[4],-0.33 z-score
same,binding signal,[5],-0.334 z-score
same,binding signal,[6],-0.333 z-score
same,binding signal,[7],-0.323 z-score
same,binding signal,[8],-0.318 z-score
same,binding signal,[9],-0.321 z-score
same,binding signal,[10],-0.339 z-score
